In patent publication JP2000515494A:
No constants are given. Whether binding was seen depends on the method and setting. Some entries that bind do so weakly or less than the wild type. For some assays here: Sequences can lack the tags named with a protein.

The chains behind the UniProt entries cited, without tags or fusion partners. Residues count along the entry.
UniProt P05113, residues 20-134: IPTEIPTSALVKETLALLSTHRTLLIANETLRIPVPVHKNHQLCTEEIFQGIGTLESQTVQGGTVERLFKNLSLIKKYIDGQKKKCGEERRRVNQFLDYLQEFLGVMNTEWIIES

Assays:
[1] = biological target: T1, 可溶性IL-5RαFc (soluble IL-5 receptor alpha chain Fc fusion) (UniProt Q01344); test: BIAcore: IL-5Ra-Fc captured on protein A, IL-5 injected
T1 sequence (looked up): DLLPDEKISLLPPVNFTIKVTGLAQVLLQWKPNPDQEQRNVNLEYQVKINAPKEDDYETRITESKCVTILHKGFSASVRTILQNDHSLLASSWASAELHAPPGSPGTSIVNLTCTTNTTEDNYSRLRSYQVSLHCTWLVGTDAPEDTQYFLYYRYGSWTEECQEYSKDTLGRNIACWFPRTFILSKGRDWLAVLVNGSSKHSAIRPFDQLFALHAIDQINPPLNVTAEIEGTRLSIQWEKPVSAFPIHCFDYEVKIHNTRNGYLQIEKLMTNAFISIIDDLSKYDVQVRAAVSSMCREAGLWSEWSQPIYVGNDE

[2] = biological target: 組換えヒトIL-5 (recombinant human interleukin-5) (human) (UniProt P05113); test: BIAcore: hIL-5 immobilised, IL-5Rα injected (20 μl, 90 nM) with or without prebound 4A6

組換えヒトIL-5 (recombinant human interleukin-5) (from UniProt P05113 20-134) (ligand)
binding [1]: binds

B1: 可溶性IL-5レセプターα鎖 (soluble IL-5 receptor alpha chain) (receptor, UniProt Q01344 21-335, looked up)
chain: DLLPDEKISLLPPVNFTIKVTGLAQVLLQWKPNPDQEQRNVNLEYQVKINAPKEDDYETRITESKCVTILHKGFSASVRTILQNDHSLLASSWASAELHAPPGSPGTSIVNLTCTTNTTEDNYSRLRSYQVSLHCTWLVGTDAPEDTQYFLYYRYGSWTEECQEYSKDTLGRNIACWFPRTFILSKGRDWLAVLVNGSSKHSAIRPFDQLFALHAIDQINPPLNVTAEIEGTRLSIQWEKPVSAFPIHCFDYEVKIHNTRNGYLQIEKLMTNAFISIIDDLSKYDVQVRAAVSSMCREAGLWSEWSQPIYVGNDE
binding [2]: binds
